Values from PubChem BioAssay AID1259254 (NCATS, 2017)
Aim: 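Finding genes that stop cells copying their DNA twice in one cycle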 (primary screen). Cells: human HCT116 colorectal cancer cells. Reagent: single siRNA against human genes. Duration: 3 days. Read-out: 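Imaged Hoechst DNA stain sorts each cell into a cycle phase by DNA amount; per plate, G2 fraction set to 0% for non-targeting and 100% for GMNN siRNA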. Scale: G2 robust z-score: higher = more G2 cells, more excess DNA replication. Hit rule: 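An siRNA counts as active if its G2 robust z-score lies at least 5 MADs above the screen median; here such calls match roughly 38% of GMNN control or more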.
Shown is an unselected part of about 59,000 deposited reagents. About 1,550 of them (2.6%) were called active. 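G2 share is only a proxy for re-replication; each gene was hit by three separate siRNAs, and active genes were retested.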 Unmarked entries are inactive. Reagents against one gene are numbered here. Further read-outs or replicates are left out here. Not given: the amount of reagent.

target gene | reagent no. | G2 robust z-score
TKT | 1 | -0.434
TKT | 2 | 7.2 (active)
TKT | 3 | -0.0784
TASOR | 1 | 0.158
TASOR | 2 | -0.816
TASOR | 3 | 1.22
LAMP5 | 1 | 7.26 (active)
LAMP5 | 2 | 0.289
LAMP5 | 3 | 0.619
MORN5 | 1 | 0.908
MORN5 | 2 | -0.208
MORN5 | 3 | -0.518
PFN4 | 1 | -1.13
PFN4 | 2 | -0.278
PFN4 | 3 | 0.48
NCS1 | 1 | -1
NCS1 | 2 | -0.526
NCS1 | 3 | -0.382
DBP | 1 | 0.25
DBP | 2 | 1.26
DBP | 3 | 0.881
IYD | 1 | 0.918
IYD | 2 | 0.79
IYD | 3 | -0.748

Entries listed so far whose gene name starts with D or d:
target gene | reagent no. | G2 robust z-score
DBP | 1 | 0.25
DBP | 2 | 1.26
DBP | 3 | 0.881

Additional reagents follow:
target gene | reagent no. | G2 robust z-score
TIMELESS | 1 | 6.11 (active)
TIMELESS | 2 | 1.77
TIMELESS | 3 | -0.887
PITPNC1 | 1 | 2.35
PITPNC1 | 2 | -0.676
PITPNC1 | 3 | -0.571
PITPNC1 | 4 | -1.03
PITPNC1 | 5 | 1.09
PITPNC1 | 6 | 1.43
FOXJ2 | 1 | -1.48
FOXJ2 | 2 | 1.21
FOXJ2 | 3 | 0.256
ARHGAP28 | 1 | -0.0299
ARHGAP28 | 2 | -0.242
ARHGAP28 | 3 | 1.98
DARS1 | 1 | -0.765
DARS1 | 2 | 1.42
DARS1 | 3 | 2.85
SETP4 | 1 | -0.434
SETP4 | 2 | 5.19 (active)
SETP4 | 3 | -0.57
MOS | 1 | -0.994
MOS | 2 | 0.68
MOS | 3 | -1.2
POU2F2 | 1 | -0.633
POU2F2 | 2 | -0.455
POU2F2 | 3 | -0.4
TRAPPC11 | 1 | -0.864
TRAPPC11 | 2 | 0.426
TRAPPC11 | 3 | -0.036
DFFB | 1 | -0.368
DFFB | 2 | 0.00365
DFFB | 3 | 2.19
KIF26A | 1 | -1.11
KIF26A | 2 | -1.09
KIF26A | 3 | -0.151
RSRP1 | 1 | 0.375
RSRP1 | 2 | 3.1
RSRP1 | 3 | 0.2
GALNT11 | 1 | 1.94
GALNT11 | 2 | -0.394
GALNT11 | 3 | 2.09
USP24 | 1 | -0.385
USP24 | 2 | 2.23
USP24 | 3 | 0.536
